## Primary screen of a compound library

Measurements from “University of Dundee, Small-Polar-MMV Screening Library” (2021), ChEMBL document CHEMBL3988442.

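Whole-parasite assay of Trypanosoma brucei over 72 hours; the read-out is not stated. Compounds at 30 µM. Direction is inferred from retests: higher values go with stronger inhibition. Values scatter widely below zero; nearly all retest evidence comes from the higher of the two concentrations used. Of about 64,000 compounds tested this way, about 940 (1.5%) reached 50% or more in at least one test.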

The filed quantity is “Percent Effect” (%).
The record does not define 0% and 100%; most values in the screen are far below 50% and negative numbers occur (in some assays of this library far below -100).
This is an unselected part of the compounds tested.

structure,Percent Effect
Cc1nc(CN2CCCN(C(=O)CCc3ccco3)CC2)cs1,16.53
Cn1cnnc1C1CCCN(c2nc3ccccc3o2)C1 (configuration not stated),-87.86
COc1ccc(OCc2cc(C(=O)N3CCSCC3)n[nH]2)c(Cl)c1,2.102
CCN(CC)C(=O)[C@@H]1C[C@@H](NC(=O)c2cccc(N(C)C)c2)CN1C,-41.33
CCN(c1cccc(F)c1)S(=O)(=O)c1cc(C(=O)O)cc2c1CCC2,-23.18
O=S1(=O)CCC(N(Cc2nc(-c3ccccn3)no2)Cc2cccs2)C1 (configuration not stated),-19.4
O=C(O)C(F)(F)F.[H][C@@]12CO[C@@H](CNC(=O)N(C)C)[C@]1([H])CCN(Cc1cccc(F)c1)C2,-24.54
COc1ccccc1CCN1CCCC(CN(C)Cc2c[nH]c(C)n2)C1 (configuration not stated),9.173
Cc1noc(C)c1CN1CC2(CCN(C(=O)c3ccoc3C)C2)CC1=O (configuration not stated),6.261
Cc1cccc2c1NC1(CCOCC1)NC2=O,-33.6
COCC1CC2(CCN(Cc3cnn(C)c3)CC2)CN1C(C)C.O=C(O)C(F)(F)F.O=C(O)C(F)(F)F (configuration not stated),-34.17
C[C@]1(O)CCN(Cc2ncccc2F)C[C@@H]1Oc1ccccc1,-5.774
O=C(Cn1cc(Cl)cn1)N1CCCC(c2ccn[nH]2)C1 (configuration not stated),-3.138
CCN(Cc1noc(C)n1)C(=O)CCc1scnc1C,-28.89
Cc1nc(C(C)(C)NCc2ncc(C3CC3)o2)sc1C,-41.16
CN1C(=O)C2(CCCN(C(=O)c3ccc(=O)n(C)n3)C2)c2ccccc21 (configuration not stated),-27.41
O=C1N(c2ccc(Cl)cc2)Cc2nc(=O)[nH]n21,-10.92
O=C(NCCCNC(=O)c1cccc(O)c1)NCc1ccccc1F,16.61
CN1C(=O)CC(c2cnn(C)c2)C12CCN(CC1CCOCC1)CC2.O=C(O)C(F)(F)F (configuration not stated),-2.852
CCOc1ccc(C(=O)Nc2c(C)nc3scc(C)n3c2=O)cc1,-28.91
Cc1nc(CN2CCN(C(=O)c3c(C)noc3C)CC2)cs1,21.72
CC(C)OCCCNC(=O)NC(C)c1ccc(-n2cncn2)cc1 (configuration not stated),-59.69
O=C(CCn1cccn1)NCC(c1cccs1)N1CCOCC1 (configuration not stated),-7.179
COc1ccnc(N2CCN(C(=O)c3cccc(C#N)c3)CC2)n1,17.64
CS(=O)(=O)N1CC2(CCN(C(=O)c3csnn3)CC2)c2ccccc21,8.167
Cc1cccn2c(CNC(C)CCc3ccc(O)cc3)cnc12 (configuration not stated),32.05
CCC(CO)N(Cc1cccs1)C(=O)Cc1ccncc1 (configuration not stated),-17.74
O=C(O)C1(n2ccc(-c3ccco3)n2)CCN(Cc2cccs2)CC1,-47.67
[H][C@]12CN(CCN3CCCC3=O)CC[C@@]1(O)CCN(c1ncccn1)C2,-22.57
O=C(CSC1CCc2ccccc2NC1=O)NCc1cccs1 (configuration not stated),5.233
CC(C)(O)CCc1ccc(C(=O)NCCC2CCCOC2)cc1 (configuration not stated),-9.107
Cc1nc(C)n(CC2CN(Cc3nc4ccccc4n3C)CCO2)n1 (configuration not stated),19.49
Cc1cc(C)c2ncn(CC(C)(C)CO)c(=O)c2c1,-18.8
COCCc1noc(CN2CCCC2c2noc(C(C)C)n2)n1 (configuration not stated),-65.86
Cc1ccc(Cl)cc1N1CCC(CNC(=O)Cn2cccn2)C1 (configuration not stated),27.9
CCN1CCN(C(=O)CCC2CCN(C(C)CSC)CC2)CC1 (configuration not stated),-24.98
COC(=O)c1ccc(C2SCC(=O)Nc3c2cnn3C2CCCC2)cc1 (configuration not stated),9.206
Cc1ccc(NS(=O)(=O)c2cc3c(c(C(=O)O)c2)OCCO3)cc1F,-19.12
[H][C@@]12CN(C(=O)c3cc(C)oc3C)C[C@]1([H])[C@H]2CN(C)CCCn1cccn1,-13.85
O=C1c2cccnc2OC(CN2CCOCC2)CN1Cc1cccs1 (configuration not stated),-9.629
O=C(C1CCCC1)N1CCC2(CC1)COCCN2CC1CC1.O=C(O)C(F)(F)F,-13.33
Cc1ccc(C(=O)NCc2ccccc2S(=O)(=O)N(C)CCO)cc1F,-15.61
CCN1CCC2(CCC1=O)CN(c1ccnc(SC)n1)CCN2C (configuration not stated),33.52
NC(=O)[C@@H]1CCCN1C(=O)c1csc(-c2ccc(C(F)(F)F)cc2)n1,-46.9
Cc1cc(C)c2cc(CNCC3CCCO3)c3nn(C)c(=O)n3c2c1 (configuration not stated),73.49
O=C(O)C(F)(F)F.O=C(O)C(F)(F)F.[H][C@@]12CN(C(=O)c3ccsc3)C[C@]1([H])OCCN2CCN(C)C,-44.16
CCN1CCN(C(=O)CCC2CCN(C(=O)CCSC)CC2)CC1,-18.74
CC(NCc1cc(O)c2cccc(F)c2n1)c1ccccc1O (configuration not stated),-6.004
CCN(CC)C(=O)C1CCC2(CCNCC2)O1.Cl (configuration not stated),-3.443
NC(=O)C1(c2cnccn2)CCCN1Cc1cccc(Cl)c1 (configuration not stated),5.023

Some entries from above, unchanged:

structure,Percent Effect
Cc1cc(C)c2ncn(CC(C)(C)CO)c(=O)c2c1,-18.8
COCCc1noc(CN2CCCC2c2noc(C(C)C)n2)n1 (configuration not stated),-65.86
CCC(CO)N(Cc1cccs1)C(=O)Cc1ccncc1 (configuration not stated),-17.74
O=C(CSC1CCc2ccccc2NC1=O)NCc1cccs1 (configuration not stated),5.233
Cc1nc(CN2CCCN(C(=O)CCc3ccco3)CC2)cs1,16.53